According to patent US20170101470A1 (PROTHENA BIOSCIENCES, published 2017):
No constants are given. Whether binding was seen depends on the method and setting. Some entries that bind do so weakly or less than the wild type. For some of these results: Tags and fused reporters may be left off the sequences shown.

Key:
[1] = molecular target: T1, human MCAM-Fc protein (extracellular domain of human MCAM fused to human IgG) (human) (UniProt P43121); assay: summary sentence of Example 3 (ForteBio, MCAMhFc)
T1 sequence: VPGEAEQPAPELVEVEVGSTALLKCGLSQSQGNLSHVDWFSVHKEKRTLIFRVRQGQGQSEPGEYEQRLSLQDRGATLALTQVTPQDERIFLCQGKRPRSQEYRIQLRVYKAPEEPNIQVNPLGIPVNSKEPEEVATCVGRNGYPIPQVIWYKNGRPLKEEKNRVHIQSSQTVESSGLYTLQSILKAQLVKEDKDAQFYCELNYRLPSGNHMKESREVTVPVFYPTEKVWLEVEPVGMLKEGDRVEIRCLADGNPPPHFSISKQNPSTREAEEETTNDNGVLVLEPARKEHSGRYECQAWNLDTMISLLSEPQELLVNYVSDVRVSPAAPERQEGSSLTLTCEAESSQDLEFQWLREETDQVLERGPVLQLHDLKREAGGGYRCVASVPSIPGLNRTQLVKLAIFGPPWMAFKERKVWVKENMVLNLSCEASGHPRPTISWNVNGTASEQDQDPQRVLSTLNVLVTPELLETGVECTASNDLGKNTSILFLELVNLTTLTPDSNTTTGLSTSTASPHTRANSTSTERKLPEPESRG

[2] = molecular target: T2, human MCAM domains 1 and 2 hFc construct (human, UniProt P43121 19-242); assay: ForteBio Octet Red, MCAMhFc domains on anti-human IgG Fc sensors, antibody at 5 ug/ml
T2 construct: One of the 'various MCAMhFc domains' loaded on the ForteBio sensors
T2 sequence: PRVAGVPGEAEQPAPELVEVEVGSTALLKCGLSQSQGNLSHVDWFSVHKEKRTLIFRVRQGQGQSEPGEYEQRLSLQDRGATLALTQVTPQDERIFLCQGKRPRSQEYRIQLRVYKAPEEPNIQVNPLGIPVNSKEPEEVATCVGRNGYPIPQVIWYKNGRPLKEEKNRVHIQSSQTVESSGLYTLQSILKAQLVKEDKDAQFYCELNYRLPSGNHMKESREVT

[3] = molecular target: T3, human MCAM expressed on CHO cells (full length human MCAM gene) (human) (UniProt P43121); assay: binding affinity experiments, data not shown; human MCAM on the surface of living cells
T3 sequence: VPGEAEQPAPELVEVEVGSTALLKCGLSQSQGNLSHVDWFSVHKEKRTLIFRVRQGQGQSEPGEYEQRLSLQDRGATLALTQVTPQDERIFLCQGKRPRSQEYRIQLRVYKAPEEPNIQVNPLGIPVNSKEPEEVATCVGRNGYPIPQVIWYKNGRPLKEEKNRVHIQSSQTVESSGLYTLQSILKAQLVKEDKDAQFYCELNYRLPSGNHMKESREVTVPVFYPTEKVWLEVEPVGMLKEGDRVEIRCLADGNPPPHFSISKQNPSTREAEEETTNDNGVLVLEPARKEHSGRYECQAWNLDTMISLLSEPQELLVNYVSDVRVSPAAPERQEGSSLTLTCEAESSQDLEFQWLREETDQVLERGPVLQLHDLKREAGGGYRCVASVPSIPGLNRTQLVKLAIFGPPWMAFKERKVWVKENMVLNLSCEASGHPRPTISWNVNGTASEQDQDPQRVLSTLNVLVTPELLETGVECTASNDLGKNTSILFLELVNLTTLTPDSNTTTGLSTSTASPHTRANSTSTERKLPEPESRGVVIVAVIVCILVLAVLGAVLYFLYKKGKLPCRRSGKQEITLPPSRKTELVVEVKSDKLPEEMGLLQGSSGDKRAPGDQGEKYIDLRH

B1: rat anti-human MCAM monoclonal antibody clone 2107.4.10 (antibody, V domains shown)
VH: QVQLKESGPGLVQSSQTLSLTCTVSGFSLTSNGVSWVRQPPGKGLEWIAAISSGGSTYYNSAFKSRLSISRNTSKSQVLLKMNSLQTEDTGMYFCARHRPFYFDYWGQGVMVTVSS
VL: DIQVTQSPSLLSASVGDRVTLNCKGSQNIYKSLAWFRLKRGEAPKLLIYDANSLQTGIPSRFSGSGSGTDFTLTITSLQPEDVATYFCQQYYSGYTFGAGTKLELK
notes: Rat hybridoma antibody
- binding [1]: binds
- binding [2]: binds
- binding [3]: binds

B2: rat anti-human MCAM monoclonal antibody clone 2120.4.19 (antibody, V domains shown)
VH: QVQLKESGPGLVQPSQTLSLTCTVSGFSLTSNGVSWVRQPPGKGLEWIAAISSGGTTYYNSAFKSRLSISRNTSKSQVLLKMNSLQTEDTAMYFCARRYGYGWYFDFWGPGTMVTVSS
VL: DIRMTQSPSLLSASVGDRVTLNCKASQNIYNSLAWYQQKLGEGPKVLIPNANSLQTGIPSRFSGSGSGTDFTLTISSLQPEDFATYFCQQFYSGYTFGAGTKLELK
notes: also called m2120
- binding [2]: binds
